Measured values as given in paper PMC3975426.
These are yes or no findings as the source states them, for the method shown. In cells and extracts the contact can be indirect.

By UniProt entry, the sequences of proteins in these tests, tags left out.
UniProt Q6R327: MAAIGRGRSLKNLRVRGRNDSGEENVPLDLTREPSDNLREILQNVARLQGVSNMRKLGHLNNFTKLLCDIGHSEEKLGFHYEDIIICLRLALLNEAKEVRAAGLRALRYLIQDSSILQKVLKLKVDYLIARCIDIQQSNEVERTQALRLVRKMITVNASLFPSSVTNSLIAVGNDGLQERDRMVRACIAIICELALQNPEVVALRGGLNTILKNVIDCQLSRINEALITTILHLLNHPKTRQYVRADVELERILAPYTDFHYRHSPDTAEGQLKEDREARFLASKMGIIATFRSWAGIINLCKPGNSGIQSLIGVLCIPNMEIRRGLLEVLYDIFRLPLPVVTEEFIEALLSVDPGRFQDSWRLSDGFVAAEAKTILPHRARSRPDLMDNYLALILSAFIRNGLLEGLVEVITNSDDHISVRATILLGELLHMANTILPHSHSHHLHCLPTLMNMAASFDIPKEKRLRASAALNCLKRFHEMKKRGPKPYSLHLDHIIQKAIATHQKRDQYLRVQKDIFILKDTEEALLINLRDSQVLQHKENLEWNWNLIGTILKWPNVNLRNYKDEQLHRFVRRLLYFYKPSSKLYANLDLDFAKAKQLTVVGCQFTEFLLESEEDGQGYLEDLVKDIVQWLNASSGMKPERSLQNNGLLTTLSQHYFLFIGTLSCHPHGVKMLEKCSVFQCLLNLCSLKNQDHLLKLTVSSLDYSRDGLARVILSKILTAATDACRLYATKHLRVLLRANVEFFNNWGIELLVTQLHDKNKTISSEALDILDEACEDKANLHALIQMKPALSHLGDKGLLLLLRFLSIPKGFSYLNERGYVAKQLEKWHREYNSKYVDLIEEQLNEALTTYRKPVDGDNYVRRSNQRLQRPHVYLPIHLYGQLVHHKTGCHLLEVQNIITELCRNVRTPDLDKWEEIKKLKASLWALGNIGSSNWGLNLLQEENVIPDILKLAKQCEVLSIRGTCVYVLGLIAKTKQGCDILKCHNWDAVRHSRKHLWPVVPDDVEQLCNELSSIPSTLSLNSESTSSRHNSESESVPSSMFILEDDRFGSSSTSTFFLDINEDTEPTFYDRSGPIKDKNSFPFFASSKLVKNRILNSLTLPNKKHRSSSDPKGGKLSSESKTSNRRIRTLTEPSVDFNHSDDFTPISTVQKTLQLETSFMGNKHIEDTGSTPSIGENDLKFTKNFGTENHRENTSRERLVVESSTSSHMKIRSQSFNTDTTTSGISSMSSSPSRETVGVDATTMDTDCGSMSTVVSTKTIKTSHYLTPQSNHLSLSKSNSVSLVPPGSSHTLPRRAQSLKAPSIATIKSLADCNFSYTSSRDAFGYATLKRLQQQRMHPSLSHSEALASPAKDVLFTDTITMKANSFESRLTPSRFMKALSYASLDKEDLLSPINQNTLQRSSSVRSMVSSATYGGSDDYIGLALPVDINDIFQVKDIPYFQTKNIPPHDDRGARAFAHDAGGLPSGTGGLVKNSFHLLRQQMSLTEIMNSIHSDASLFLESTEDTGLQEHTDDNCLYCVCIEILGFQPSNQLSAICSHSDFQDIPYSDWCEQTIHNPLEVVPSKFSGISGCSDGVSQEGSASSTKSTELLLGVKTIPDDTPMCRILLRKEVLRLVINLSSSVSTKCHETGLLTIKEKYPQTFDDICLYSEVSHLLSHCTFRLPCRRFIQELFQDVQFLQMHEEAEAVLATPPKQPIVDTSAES
UniProt Q8N122: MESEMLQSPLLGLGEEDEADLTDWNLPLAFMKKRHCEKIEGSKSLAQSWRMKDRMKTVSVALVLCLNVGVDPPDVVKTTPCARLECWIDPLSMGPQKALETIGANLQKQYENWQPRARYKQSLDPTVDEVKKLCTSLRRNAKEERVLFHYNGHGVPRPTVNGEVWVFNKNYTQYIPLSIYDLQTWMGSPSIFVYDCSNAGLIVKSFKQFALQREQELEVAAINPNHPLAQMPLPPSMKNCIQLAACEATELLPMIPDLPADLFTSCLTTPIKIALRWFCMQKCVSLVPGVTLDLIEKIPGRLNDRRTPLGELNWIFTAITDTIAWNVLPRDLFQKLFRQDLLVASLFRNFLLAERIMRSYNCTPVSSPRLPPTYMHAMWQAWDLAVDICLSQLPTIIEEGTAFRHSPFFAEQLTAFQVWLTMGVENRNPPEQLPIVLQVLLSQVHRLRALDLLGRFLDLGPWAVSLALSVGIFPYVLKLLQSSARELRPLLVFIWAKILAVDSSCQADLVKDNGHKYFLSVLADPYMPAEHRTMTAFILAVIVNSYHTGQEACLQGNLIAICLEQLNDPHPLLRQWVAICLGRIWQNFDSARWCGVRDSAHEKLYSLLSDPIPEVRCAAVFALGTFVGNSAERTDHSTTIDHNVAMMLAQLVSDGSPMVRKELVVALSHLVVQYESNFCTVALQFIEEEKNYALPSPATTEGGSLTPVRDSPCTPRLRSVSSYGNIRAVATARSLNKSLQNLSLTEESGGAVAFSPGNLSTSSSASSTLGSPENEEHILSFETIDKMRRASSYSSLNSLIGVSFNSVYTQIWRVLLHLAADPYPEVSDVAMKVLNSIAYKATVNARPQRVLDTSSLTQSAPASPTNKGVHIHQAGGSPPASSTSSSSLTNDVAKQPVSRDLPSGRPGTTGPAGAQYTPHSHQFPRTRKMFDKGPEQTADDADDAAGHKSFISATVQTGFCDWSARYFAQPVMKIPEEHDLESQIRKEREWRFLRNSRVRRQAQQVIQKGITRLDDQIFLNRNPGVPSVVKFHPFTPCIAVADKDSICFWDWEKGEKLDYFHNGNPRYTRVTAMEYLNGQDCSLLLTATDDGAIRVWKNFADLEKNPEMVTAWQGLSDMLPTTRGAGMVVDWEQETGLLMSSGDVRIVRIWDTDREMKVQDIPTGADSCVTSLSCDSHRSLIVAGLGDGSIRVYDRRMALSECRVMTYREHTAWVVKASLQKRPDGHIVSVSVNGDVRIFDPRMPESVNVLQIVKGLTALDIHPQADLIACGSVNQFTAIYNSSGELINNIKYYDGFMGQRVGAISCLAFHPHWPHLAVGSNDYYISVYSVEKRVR

Target: rapamycin-insensitive companion of mTOR (rictor) (human (endogenous in CCRF-CEM and HEK293)) (UniProt Q6R327)
Assay: co-IP; endogenous mTOR complexes precipitated from CCRF-CEM or HEK293 lysates with raptor or rictor antibody and Dynabeads G, overnight at 4 °C; lysis in CHAPS buffer lacking NaCl (40 mM HEPES pH 7.4, 0.3% CHAPS); washes with CHAPS buffer containing 150 mM NaCl; immunoblot of the elutes

For “regulatory-associated protein of mTOR (Raptor) (from UniProt Q8N122 1-1335)”, the binding was “no binding”.
